Experimental data: PubChem BioAssay AID1259308 (NCATS, 2017)
Screen: 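Knock-downs that increase output of a recombinant reporter protein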 (primary screen). Cell system: human HEK293 embryonic kidney cells stably expressing firefly luciferase (HEK-CMV-Luc2-Hygro). Knock-down reagent: single siRNA against human genes, 0.8 pmol siRNA per well. Duration: 72 h. Measured: 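Reporter luminescence and viable-cell signal on separate replicate plates, given as percent of non-targeting control and median/MAD z-scores, plus per-cell luciferase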. Direction: total luciferase, z-score: higher = more reporter protein produced. Rule for the call: 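Active when the median/MAD z-score for overall luciferase is greater than 3; a gene was taken forward for validation with new siRNAs if at least two of its three siRNAs passed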. Meaning of the calls: active = raised luciferase; inactive = no rise.
The deposit covers about 59,000 reagents; this is a random part of them. In the full data, about 1,510 (2.6%) were called active. 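Calls use total luciferase alone and ignore viability, so some active siRNAs may act by altering cell number.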 Reagents against one gene are numbered here. Further read-outs or replicates are left out here.

For APLF (aprataxin and PNKP like factor) #1, the entry reads total luciferase, z-score 1.22; inactive.
Against APLF (aprataxin and PNKP like factor) #2 the deposit lists total luciferase, z-score 1.22; inactive.
For APLF (aprataxin and PNKP like factor) #3, the values are total luciferase, z-score 0.558; inactive.
Depletion of MCC (MCC regulator of Wnt signaling pathway) #1 resulted in: total luciferase, z-score 0.281; inactive.
With knock-down of MCC (MCC regulator of Wnt signaling pathway) #2, the record shows total luciferase, z-score -0.628; inactive.
Against MCC (MCC regulator of Wnt signaling pathway) #3 the deposit lists total luciferase, z-score 0.661; inactive.
GPI (glucose-6-phosphate isomerase) #1 showed total luciferase, z-score 1.95; inactive.
Silencing of GPI (glucose-6-phosphate isomerase) #2 came out at: total luciferase, z-score 1.75; inactive.
After knock-down of GPI (glucose-6-phosphate isomerase) #3 the results were total luciferase, z-score 1.57; inactive.
Depletion of TDRD1 (tudor domain containing 1) #1 came out at: total luciferase, z-score 1.68; inactive.
Knock-down of TDRD1 (tudor domain containing 1) #2 resulted in: total luciferase, z-score -0.732; inactive.
Against TDRD1 (tudor domain containing 1) #3, the entry reads total luciferase, z-score 0.197; inactive.
C1QTNF6 (C1q and TNF related 6) #1 showed total luciferase, z-score 0.121; inactive.
Knock-down of C1QTNF6 (C1q and TNF related 6) #2 came out at: total luciferase, z-score 1.52; inactive.
With knock-down of C1QTNF6 (C1q and TNF related 6) #3, the record shows total luciferase, z-score 0.376; inactive.

Records listed so far whose target name starts with A or a (3):
APLF (aprataxin and PNKP like factor) #1: total luciferase, z-score = 1.22; outcome = inactive
APLF (aprataxin and PNKP like factor) #2: total luciferase, z-score = 1.22; outcome = inactive
APLF (aprataxin and PNKP like factor) #3: total luciferase, z-score = 0.558; outcome = inactive

More reagents follow.
Against GCFC2 (GC-rich sequence DNA-binding factor 2) #1 the deposit lists total luciferase, z-score -0.792; inactive.
Against GCFC2 (GC-rich sequence DNA-binding factor 2) #2, the entry reads total luciferase, z-score -0.479; inactive.
GCFC2 (GC-rich sequence DNA-binding factor 2) #3 showed total luciferase, z-score -1.24; inactive.
Against PLOD3 (procollagen-lysine,2-oxoglutarate 5-dioxygenase 3) #1, the entry reads total luciferase, z-score -0.911; inactive.
Depletion of PLOD3 (procollagen-lysine,2-oxoglutarate 5-dioxygenase 3) #2 gave: total luciferase, z-score -0.442; inactive.
PLOD3 (procollagen-lysine,2-oxoglutarate 5-dioxygenase 3) #3 showed total luciferase, z-score -2.18; inactive.
With knock-down of C6orf62 (chromosome 6 open reading frame 62) #1, the record shows total luciferase, z-score 0.631; inactive.
Silencing of C6orf62 (chromosome 6 open reading frame 62) #2 resulted in: total luciferase, z-score -0.403; inactive.
With knock-down of C6orf62 (chromosome 6 open reading frame 62) #3, the record shows total luciferase, z-score -0.593; inactive.
With knock-down of ARSI (arylsulfatase family member I) #1 the results were total luciferase, z-score 0.133; inactive.
After knock-down of ARSI (arylsulfatase family member I) #2, the screen gave total luciferase, z-score -0.245; inactive.
Depletion of ARSI (arylsulfatase family member I) #3 came out at: total luciferase, z-score -0.226; inactive.
TBC1D4 (TBC1 domain family member 4) #1 scored total luciferase, z-score -1.92; inactive.
After knock-down of TBC1D4 (TBC1 domain family member 4) #2 the results were total luciferase, z-score 0.0259; inactive.
Silencing of TBC1D4 (TBC1 domain family member 4) #3 came out at: total luciferase, z-score -0.758; inactive.
With knock-down of PEAK3 (PEAK family member 3) #1, the record shows total luciferase, z-score -0.126; inactive.
Knock-down of PEAK3 (PEAK family member 3) #2 gave: total luciferase, z-score 1.28; inactive.
PEAK3 (PEAK family member 3) #3 gave total luciferase, z-score -1.33; inactive.
